Assay results published in US10064928B2, “Peptides and combination of peptides for use in immunotherapy against CLL and other cancers” (IMMATICS BIOTECHNOLOGIES GMBH, priority 2015, dated 2018).

Experiments:
[1] = tested on: other tumor types (e.g. non-Hodgkin lymphoma, lung cancer); assay: Presentation of the peptides on additional tumor types (LC-MS, Tables 4A/4B, FIG. 1); parameters: species or system human; details: for Other relevant organs/diseases: Table 4A: additional tumor types where the peptide was over-presented on more than 5% of the measured tumor samples, or presented on more than 5% with ratio of geometric means tumor vs normal tissues larger than 3; for Additional Entities: Table 4B: additional tumour types with over-presentation (including specific presentation) on more than 5% of the measured tumour samples, or presentation on more than 5% with ratio of geometric means tumour vs normal tissues larger than 3, extended normal tissue panel
[2] = tested on: CLL samples compared to a panel of normal tissues; assay: Identification and label-free relative LC-MS quantitation of HLA-presented peptides (presentation profiles and scores); parameters: species or system human; key: very highly over-presented on tumors compared to a panel of normal tissues (+++); highly over-presented on tumors compared to a panel of normal tissues (++); over-presented on tumors compared to a panel of normal tissues (+); details: presentation score; over-presentation on tumors (CLL samples) compared to a panel of normal tissues

| Substance | Other relevant organs/diseases [1] | Peptide Presentation [2] | Additional Entities [1] |
| --- | --- | --- | --- |
| 43 (FLLGPEALSFA; listed as Homo sapiens) [compound 43] | NHL, AML | +++ |  |
| 45 (FLPELPADLEA; listed as Homo sapiens) [compound 45] | NHL, Melanoma | ++ | NSCLC, Uterine Cancer, OC |
| 48 (FLSPQQPPLL; listed as Homo sapiens) [compound 48] | NHL | +++ | HNSCC |
| 49 (FLTDLFAQL; listed as Homo sapiens) [compound 49] |  | + | NHL, Melanoma |
| 51 (FLVEAPHDWDL; listed as Homo sapiens) [compound 51] |  | ++ | Uterine Cancer |
| 52 (FLVETGFLHV; listed as Homo sapiens) [compound 52] | Melanoma | +++ |  |
| 56 (FVFEAPYTL; listed as Homo sapiens) [compound 56] | NHL, AML | +++ |  |
| 57 (GLSEISLRL; listed as Homo sapiens) [compound 57] | NHL, AML, Melanoma | +++ |  |
| 58 (YIQQGIFSV; listed as Homo sapiens) [compound 58] |  | ++ | NHL, NSCLC |
| 59 (FVFGDENGTVSL; listed as Homo sapiens) [compound 59] | NHL, Esophageal Cancer, Urinary bladder cancer, Uterine Cancer | +++ | SCLC, HNSCC |
| 60 (FVLDHEDGLNL; listed as Homo sapiens) [compound 60] | Melanoma, Esophageal Cancer | ++ |  |
| 63 (SLAHVAGCEL; listed as Homo sapiens) [compound 63] | NHL | +++ |  |
| 64 (KLLESVASA; listed as Homo sapiens) [compound 64] | NHL | ++ |  |
| 66 (SLAGGLDDMKA; listed as Homo sapiens) [compound 66] | NHL | +++ |  |
| 68 (GLDQQFAGLDL; listed as Homo sapiens) [compound 68] | RCC, HCC, NHL, Melanoma | +++ | BRCA, OC, Uterine Cancer, Gallbladder Cancer, Bile Duct Cancer, HNSCC |
| 69 (GLHQREIFL; listed as Homo sapiens) [compound 69] | NHL | +++ |  |
| 70 (FVPDTPVGV; listed as Homo sapiens) [compound 70] | NHL | ++ |  |
| 71 (GLKHDIARV; listed as Homo sapiens) [compound 71] | NHL | +++ |  |
| 72 (GLLDAGKMYV; listed as Homo sapiens) [compound 72] | NHL, Melanoma | +++ |  |
| 76 (GLLRIIPYL; listed as Homo sapiens) [compound 76] | NHL | ++ | RCC |
| 78 (GLPSFLTEV; listed as Homo sapiens) [compound 78] | HCC, NHL, AML, Melanoma | +++ |  |
| 79 (GLQAKIQEA; listed as Homo sapiens) [compound 79] | NHL, Esophageal Cancer, Uterine Cancer | +++ |  |
| 80 (VLIEDELEEL; listed as Homo sapiens) [compound 80] | NHL | +++ |  |
| 81 (WLVGQEFEL; listed as Homo sapiens) [compound 81] | NHL | +++ |  |
| 82 (GLQSGVDIGV; listed as Homo sapiens) [compound 82] | NHL | + | AML, Esophageal Cancer, PC |
| 83 (GQGEVLVYV; listed as Homo sapiens) [compound 83] | SCLC, GC, Esophageal Cancer | + | NHL |
| 86 (HLYPGAVTI; listed as Homo sapiens) [compound 86] | HCC, NHL | +++ | AML |
| 88 (ILDEIGADVQA; listed as Homo sapiens) [compound 88] | PC, NHL | +++ |  |

| Substance | Other relevant organs/diseases [1] | Peptide Presentation [2] | Additional Entities [1] |
| --- | --- | --- | --- |
| 89 (ILDFGTFQL; listed as Homo sapiens) [compound 89] | NHL | +++ | BRCA |
| 90 (VIADLGLIRV; listed as Homo sapiens) [compound 90] |  | +++ | Melanoma |
| 92 (ILEPLNPLL; listed as Homo sapiens) [compound 92] | NHL | +++ |  |
| 93 (ILFNTQINI; listed as Homo sapiens) [compound 93] | SCLC, NHL, AML, Melanoma, OC | +++ | Uterine Cancer, HNSCC |
| 94 (ILFPLRFTL; listed as Homo sapiens) [compound 94] | NSCLC, RCC, CRC, NHL, Melanoma, OC | +++ | Gallbladder Cancer, Bile Duct Cancer, AML, HNSCC |
| 99 (ILIFHSVAL; listed as Homo sapiens) [compound 99] | NHL, AML | +++ |  |
| 100 (ILNNEVFAI; listed as Homo sapiens) [compound 100] | NHL, AML | + |  |
| 101 (ILVVIEPLL; listed as Homo sapiens) [compound 101] | NHL | +++ | Uterine Cancer |
| 102 (IQDRAVPSL; listed as Homo sapiens) [compound 102] | AML | +++ |  |
| 103 (KLGGTPAPA; listed as Homo sapiens) [compound 103] | NHL | ++ |  |
| 109 (KLWEGLTELV; listed as Homo sapiens) [compound 109] | AML | ++ |  |
| 112 (KTLDVDATYEI; listed as Homo sapiens) [compound 112] | HCC, NHL, Melanoma, Esophageal Cancer, OC | +++ | Uterine Cancer |
| 113 (KVPAEEVLVAV; listed as Homo sapiens) [compound 113] |  | + | NHL, NSCLC |
| 114 (LIPEGPPQV; listed as Homo sapiens) [compound 114] |  | +++ | AML, HNSCC |
| 115 (LLFDKLYLL; listed as Homo sapiens) [compound 115] |  | +++ | Uterine Cancer |
| 122 (LLIPVVPGV; listed as Homo sapiens) [compound 122] | NSCLC, NHL | ++ |  |
| 124 (LLLEETEKQAV; listed as Homo sapiens) [compound 124] | RCC, HCC | ++ | HNSCC |
| 125 (LLLEIGEVGKLFV; listed as Homo sapiens) [compound 125] | NHL | ++ | BRCA |
| 126 (LLPEGGITAI; listed as Homo sapiens) [compound 126] | NHL | +++ | SCLC, HCC, Melanoma, Uterine Cancer, HNSCC |
| 127 (LLPTAPTTV; listed as Homo sapiens) [compound 127] | NHL | +++ | SCLC |
| 128 (LLSEEEYHL; listed as Homo sapiens) [compound 128] |  | +++ | Urinary Bladder Cancer, NHL, HNSCC |
| 130 (LLVLIPVYL; listed as Homo sapiens) [compound 130] | NHL, Melanoma | +++ | Uterine Cancer |
| 133 (YLLSGDISEA; listed as Homo sapiens) [compound 133] | NHL | +++ |  |
| 137 (NLIKTVIKL; listed as Homo sapiens) [compound 137] | NHL | + |  |
| 138 (NLLDIDAPVTV; listed as Homo sapiens) [compound 138] | SCLC, NHL | ++ | Uterine Cancer, AML |
| 139 (NLTDVVEKL; listed as Homo sapiens) [compound 139] | RCC, NHL | +++ |  |
| 141 (QILSEIVEA; listed as Homo sapiens) [compound 141] | NHL, Melanoma | ++ | Uterine Cancer |
